We go through 19 molecules from article PMC10163288.

Some of the results follow.

Sequences and labels used below:
B1: il2ra_site1_2b5i_sap_13_mot_HHH_b1_00095_000000044_0001_1_14_H_._0f91de3147d923573a0621cd0b52f718_0001_1_0001_0000400021_0000001_0_0001_af2pred_dldesign_0_af2pr … (protein)
chain: SSSSSPRVRGLLERVLDLRAAGDAEALAALREEIEAALAEATDPEDRRLLRLALRAARRPPSSSS
B2: il2ra_site2_3nfp_normal_mot_HHH_b1_01964_000000000_0001_19_36_H_._HHH_b1_03031_0001_0000500024_0000001_0_af2pred_0001_af2pred (protein)
chain: SSSSSDEELLQEAKELLEEGNLEEARRVLARAAALAIELGDEELAHEIASLAIRVAELLGSSSSS
B3: il2ra_site1_3nfp_normal_mot_HHH_b1_03195_af2_000000163_0001_42_58_H_._HHH_b2_02212_af2_0001_0000200016_0000001_0 (protein)
chain: SSSSDERHRANRLLKELIEAAKEGDEELIRQLEEEIKELAERANDERLERLLKQLEELLGSSSSS
B4: il2ra_site2_2erj_normal_mot_HHH_b2_02154_af2_000000141_0001_43_57_H_._HEEHE_3044_0001_0000500024_0000001_0_af2pred_0001_1_af2pred_swapped (protein)
chain: DDALSFEVLVELVAKMAGVPSVTVEYSNGQYHVELEGDNEALEHAALLVRSAAEAQDLDVEVETE
B5: il2ra_site2_2erj_sap_15_mot_HHH_b1_05208_000000212_0001_43_57_H_._HHH_b2_03262_0001_0000200008_0000001_0_0001 (protein)
chain: SSSSSDELRRAYELAVILLHLVARNDREEFEEISEEFRELVERLNSDNARENLEQLERQLSSSSS
B6: il2ra_site1_3nfp_normal_mot_HHH_b1_03753_af2_000000088_0001_41_54_H_._8822628e7dce7141ff94e8fdab707b8c_0001_1_af2_0001_0000200019_0000001_0 (protein)
chain: SEEEEEAEELLKRRLPPKAVEALRILAKAVKEGNPNAERRLRYDEEVAEKLGDEDVVRAIELLRK
B7: il2ra_site1_3nfp_sap_19_mot_HHH_b1_02637_af2_000000013_0001_1_18_H_._HHH_b2_02255_0001_0000600025_0000001_0_0001 (protein)
chain: DDEAFEAARLMRDPEFLRLILELIREELNVPPEEANQFLYELMQRAARGDPEAMRILAELAKEVK
B8: il2ra_site1_1z92_normal_mot_HHH_b1_04604_af2_000000029_0001_42_56_H_._HHH_b2_07020_af2_0001_0000300012_0000001_0 (protein)
chain: SSSSSSDVIELALRLARALRRGDEEEVQELLEELKRYAEERDNRAAREIAERIEKHLGSSSSSSS
B9: il2ra_site1_3nfp_normal_mot_HHH_b2_00128_000000255_0001_39_54_H_._HHH_b1_08068_0001_0000500021_0000001_0_af2pred_0001_af2pred (protein)
chain: SSSSSDREEEVEELLEEAKRIEDLQEASRVFREALKLALEARDPELRRLVEEVARELAGSSSSSS
B10: il2ra_site2_3nfp_normal_mot_HHH_b1_04960_000000149_0001_23_39_H_._HHH_b1_08457_0001_0000300025_0000001_0 (protein)
chain: SSSSDAEELVKRLEEELREAEEKGDEELLEELAFELFALAVDLQDQRLAAFAAELFIRLRSSSSS
B11: il2ra_site1_3nfp_normal_mot_HHH_b1_03014_af2_000000204_0001_43_57_H_._HHH_b1_04002_af2_0001_0000100001_0000001_0_af2pred_0001_af2pred_1 (protein)
chain: SSSSSDVEELIELLEELAHKVSERDRKFLEAVLRRVKRLLKRGDERRAEKAARSALRAASSSSSS
B12: il2ra_site1_3nfp_sap_13_mot_HHH_b1_03479_af2_000000099_0001_1_19_H_._HHH_b1_08236_af2_0001_0000200011_0000001_0_0001_af2pred_0001_af2pred (protein)
chain: SSSSSEAEKLFEKAARLAHEGNYEEAEEVLREALELAEERNSEALRKFLEAALRIVEARRSSSSS
B13: il2ra_site2_3nfp_sap_12_mot_HHH_b1_00660_af2_000000090_0001_40_57_H_._HHH_b2_05252_0001_0000300023_0000001_1_0001 (protein)
chain: SSSSSSDHEFYEEVVKLLKKALKIEDEEELRKVLEEAEELARELGSEVLRRAVEFTAKANSSSSS
B14: il2ra_site2_3nfp_normal_mot_0136b98644bc9a8eb58b95019b738ebb_0001_1_000000071_0001_1_13_H_._HHH_b2_00169_0001_0000500015_0000001_0 (protein)
chain: SSSSSEEREADRLLARAYELLLRGNPEEARRLLERAEELAEEAGDETLLKQIEWALKALENSSSS
B15: il2ra_site2_2erj_sap_25_mot_ca9fcc9ace360711d783d1260e4fbff1_0001_1_af2_000000007_0001_15_32_H_._7f39e2d7389de0c2f60e905c27398b6a_0001_1_af2_0001_0000400011_000 … (protein)
chain: SSSSSYEERVEELLEEAEEAYREGDLHAVYRLAVEALHVASELGDQELIRLVAEFVEKISDSSSS
B16: il2ra_site1_1z92_normal_mot_c9a8daa1dfea21d1414aecde54be4f54_0001_1_af2_000000024_0001_32_46_H_._a445c54e3280ddb545be3b99cff61ffd_0001_1_af2_0001_0000100005_000 … (protein)
chain: SLEEVEEELKKLVNDPKAEKIIRVVVELAKEAQAPPELLLRDLERTAKLLGDEELEEAVKELLRK
B17: il2ra_site2_3nfp_normal_mot_HHH_b2_04230_000000235_0001_39_52_H_._HHH_b1_07298_0001_0000100007_0000001_0_af2pred_0001_af2pred (protein)
chain: SSSSDYEEEVKRLLEELRELLEEGDEEKFRKLLAEVSELIYENNDSELYIELAEIVFEFENSSSS
B18: il2ra_site1_2b5i_sap_17_mot_HHH_b2_07052_af2_000000021_0001_1_15_H_._HHH_b2_07811_0001_0000200026_0000001_0_0001_af2pred_0001_af2pred_1 (protein)
chain: SSSSDEELKELDELYHEASELWRRGNPEEAKRVLEEARKLAEELGDERAAKEIEFILRRASSSSS
B19: il2ra_site1_3nfp_sap_19_mot_HHH_b1_02247_af2_000000083_0001_41_56_H_._819758749a7565068ab34538b75d2992_0001_1_af2_0001_0000900039_0000001_0_0001 (protein)
chain: SSSSDEEAEEFWRLIREAIEAQKEGDEELAKELAELLEELAKERNDESAAKAVEELLKALKSSSS

This test concerns the target il2ra, P01589. The experiment in a line: yeast display titration.
In the case of B1, the “apparent Kd” value was “inactive: no binding seen”.

For the molecule B2, the “apparent Kd” value was “inactive: no binding seen”.

As to B3, the “apparent Kd” value is “inactive: no binding seen”.

As to B4, the “apparent Kd” value was “inactive: no binding seen”.

With B5, the “apparent Kd” value was “inactive: no binding seen”.

Take B6: the “apparent Kd” value was “inactive: no binding seen”.

Consider B7, for which the “apparent Kd” value was “inactive: no binding seen”.

For B8, the “apparent Kd” value is “inactive: no binding seen”.

Turning to B9, the “apparent Kd” value is “inactive: no binding seen”.

Take B10: the “apparent Kd” value was “inactive: no binding seen”.

B11: the “apparent Kd” value is “inactive: no binding seen”.

With B12, the “apparent Kd” value is “inactive: no binding seen”.

With B13, the “apparent Kd” value is “inactive: no binding seen”.

In the case of B14, the “apparent Kd” value was “inactive: no binding seen”.

As to B15, the “apparent Kd” value was “inactive: no binding seen”.

With B16, the “apparent Kd” value is “inactive: no binding seen”.

Consider B17, for which the “apparent Kd” value is “inactive: no binding seen”.

Take B18: the “apparent Kd” value was “inactive: no binding seen”.

As to B19, the “apparent Kd” value is “inactive: no binding seen”.
